This is one part of the list.
Compound: CC1Cc2ccccc2N1C(=O)C1CCCN(C1)C(=O)CCl (mixture of isomers) [TRIM25 ligand 11 (diastereomer mixture)]
Experiment: probe-labelled cysteine peptide fold change vs DMSO (competition) (log2 fold change); higher = less target engagement (more negative = stronger competition)
Details: THP-1, incubation time: 4 h
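Also: competitive chemoproteomic profiling in live THP-1 cells with an iodoacetamide desthiobiotin (IA-DTB) probe, comparing probe-labelled peptide intensities in compound-treated cells against DMSO-treated controls.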

By UniProt entry, the sequences of proteins in these tests, tags left out. Where a name states a change or a piece, a line headed by the entry shows the natural chain unless it says otherwise.
UniProt Q5VTR2, whole entry, looked up: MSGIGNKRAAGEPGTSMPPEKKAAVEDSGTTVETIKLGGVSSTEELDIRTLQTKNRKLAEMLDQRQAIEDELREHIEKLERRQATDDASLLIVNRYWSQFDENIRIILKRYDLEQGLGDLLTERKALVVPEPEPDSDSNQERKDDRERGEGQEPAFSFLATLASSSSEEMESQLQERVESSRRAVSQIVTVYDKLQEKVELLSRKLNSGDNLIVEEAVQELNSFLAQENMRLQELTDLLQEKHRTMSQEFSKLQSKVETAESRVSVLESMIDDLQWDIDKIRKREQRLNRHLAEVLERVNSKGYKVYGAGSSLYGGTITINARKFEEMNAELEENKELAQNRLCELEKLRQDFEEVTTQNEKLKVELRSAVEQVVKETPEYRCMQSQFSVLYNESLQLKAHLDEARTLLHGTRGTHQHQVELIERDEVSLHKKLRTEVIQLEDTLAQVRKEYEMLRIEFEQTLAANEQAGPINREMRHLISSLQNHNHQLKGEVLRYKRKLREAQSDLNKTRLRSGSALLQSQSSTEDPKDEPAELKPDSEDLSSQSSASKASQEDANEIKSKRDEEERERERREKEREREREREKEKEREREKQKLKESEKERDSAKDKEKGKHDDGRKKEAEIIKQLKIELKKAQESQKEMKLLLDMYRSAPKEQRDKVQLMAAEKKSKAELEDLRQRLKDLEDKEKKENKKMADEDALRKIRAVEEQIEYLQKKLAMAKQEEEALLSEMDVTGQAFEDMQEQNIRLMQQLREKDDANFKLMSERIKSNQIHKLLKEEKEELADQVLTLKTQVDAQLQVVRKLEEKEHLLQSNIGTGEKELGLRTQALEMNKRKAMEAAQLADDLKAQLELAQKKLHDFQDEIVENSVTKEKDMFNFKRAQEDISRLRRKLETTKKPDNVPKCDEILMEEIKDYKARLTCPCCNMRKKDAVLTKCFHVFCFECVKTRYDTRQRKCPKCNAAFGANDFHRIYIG
UniProt P13489: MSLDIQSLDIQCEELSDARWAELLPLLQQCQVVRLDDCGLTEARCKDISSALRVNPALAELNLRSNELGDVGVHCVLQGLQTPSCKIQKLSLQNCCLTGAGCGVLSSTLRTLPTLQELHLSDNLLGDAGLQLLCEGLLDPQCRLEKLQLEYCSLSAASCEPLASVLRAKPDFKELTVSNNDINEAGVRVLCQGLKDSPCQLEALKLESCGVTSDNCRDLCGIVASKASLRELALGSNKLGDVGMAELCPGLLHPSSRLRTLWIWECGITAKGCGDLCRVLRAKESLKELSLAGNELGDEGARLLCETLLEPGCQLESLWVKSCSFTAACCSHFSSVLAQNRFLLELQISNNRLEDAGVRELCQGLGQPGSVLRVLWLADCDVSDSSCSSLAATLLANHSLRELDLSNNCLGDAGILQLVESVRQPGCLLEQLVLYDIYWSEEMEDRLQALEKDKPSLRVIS
UniProt Q96EP0: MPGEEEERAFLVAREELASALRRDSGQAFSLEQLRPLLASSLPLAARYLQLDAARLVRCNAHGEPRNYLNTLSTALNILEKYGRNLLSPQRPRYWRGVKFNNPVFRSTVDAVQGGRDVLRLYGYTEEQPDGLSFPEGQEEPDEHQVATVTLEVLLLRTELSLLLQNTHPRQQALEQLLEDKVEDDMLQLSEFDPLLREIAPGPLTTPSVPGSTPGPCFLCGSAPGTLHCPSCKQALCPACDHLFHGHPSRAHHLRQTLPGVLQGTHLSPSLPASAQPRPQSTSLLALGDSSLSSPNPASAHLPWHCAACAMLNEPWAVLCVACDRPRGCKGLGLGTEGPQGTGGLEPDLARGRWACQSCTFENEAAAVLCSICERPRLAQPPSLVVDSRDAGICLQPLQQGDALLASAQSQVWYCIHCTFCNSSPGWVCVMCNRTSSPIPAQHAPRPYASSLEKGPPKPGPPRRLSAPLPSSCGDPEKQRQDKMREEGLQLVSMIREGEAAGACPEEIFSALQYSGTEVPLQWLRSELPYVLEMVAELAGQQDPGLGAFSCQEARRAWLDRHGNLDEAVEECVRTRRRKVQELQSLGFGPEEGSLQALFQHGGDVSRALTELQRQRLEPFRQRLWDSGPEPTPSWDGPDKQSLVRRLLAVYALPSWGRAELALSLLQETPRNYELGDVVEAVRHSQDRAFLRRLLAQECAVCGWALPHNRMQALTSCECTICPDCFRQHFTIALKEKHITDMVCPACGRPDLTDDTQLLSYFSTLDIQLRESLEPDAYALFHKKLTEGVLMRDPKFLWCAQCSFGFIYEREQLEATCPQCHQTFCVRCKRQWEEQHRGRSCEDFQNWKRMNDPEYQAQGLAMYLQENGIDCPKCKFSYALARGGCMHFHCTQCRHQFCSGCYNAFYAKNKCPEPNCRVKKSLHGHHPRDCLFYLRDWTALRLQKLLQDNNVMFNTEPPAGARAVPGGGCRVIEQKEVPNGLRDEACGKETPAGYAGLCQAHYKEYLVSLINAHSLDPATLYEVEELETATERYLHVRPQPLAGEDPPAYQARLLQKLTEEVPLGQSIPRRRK
UniProt Q9H6T3, whole entry, looked up: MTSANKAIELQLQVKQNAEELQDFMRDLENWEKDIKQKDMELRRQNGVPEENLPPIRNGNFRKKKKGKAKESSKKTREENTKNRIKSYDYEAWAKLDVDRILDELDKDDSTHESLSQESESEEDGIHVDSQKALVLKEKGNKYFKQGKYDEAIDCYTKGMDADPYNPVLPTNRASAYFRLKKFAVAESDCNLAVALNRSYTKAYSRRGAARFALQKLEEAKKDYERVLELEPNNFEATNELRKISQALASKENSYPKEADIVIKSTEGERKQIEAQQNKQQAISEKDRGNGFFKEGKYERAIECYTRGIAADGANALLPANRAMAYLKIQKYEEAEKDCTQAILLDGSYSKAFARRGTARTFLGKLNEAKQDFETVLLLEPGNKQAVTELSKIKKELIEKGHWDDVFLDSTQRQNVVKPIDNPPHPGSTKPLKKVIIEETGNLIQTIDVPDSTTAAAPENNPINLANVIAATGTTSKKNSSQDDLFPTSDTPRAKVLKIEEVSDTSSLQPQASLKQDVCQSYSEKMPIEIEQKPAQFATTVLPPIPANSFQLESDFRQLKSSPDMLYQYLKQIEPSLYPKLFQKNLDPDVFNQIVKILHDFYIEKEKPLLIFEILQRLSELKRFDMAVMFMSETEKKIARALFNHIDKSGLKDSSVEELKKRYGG
UniProt Q8WVD3: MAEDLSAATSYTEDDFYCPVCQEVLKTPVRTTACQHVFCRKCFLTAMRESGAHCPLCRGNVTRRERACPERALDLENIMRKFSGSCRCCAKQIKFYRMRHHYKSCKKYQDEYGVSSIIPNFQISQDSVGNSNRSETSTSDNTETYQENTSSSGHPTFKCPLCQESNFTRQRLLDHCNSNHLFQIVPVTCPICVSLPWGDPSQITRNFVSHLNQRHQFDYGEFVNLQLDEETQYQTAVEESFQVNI
UniProt O75150, whole entry, looked up: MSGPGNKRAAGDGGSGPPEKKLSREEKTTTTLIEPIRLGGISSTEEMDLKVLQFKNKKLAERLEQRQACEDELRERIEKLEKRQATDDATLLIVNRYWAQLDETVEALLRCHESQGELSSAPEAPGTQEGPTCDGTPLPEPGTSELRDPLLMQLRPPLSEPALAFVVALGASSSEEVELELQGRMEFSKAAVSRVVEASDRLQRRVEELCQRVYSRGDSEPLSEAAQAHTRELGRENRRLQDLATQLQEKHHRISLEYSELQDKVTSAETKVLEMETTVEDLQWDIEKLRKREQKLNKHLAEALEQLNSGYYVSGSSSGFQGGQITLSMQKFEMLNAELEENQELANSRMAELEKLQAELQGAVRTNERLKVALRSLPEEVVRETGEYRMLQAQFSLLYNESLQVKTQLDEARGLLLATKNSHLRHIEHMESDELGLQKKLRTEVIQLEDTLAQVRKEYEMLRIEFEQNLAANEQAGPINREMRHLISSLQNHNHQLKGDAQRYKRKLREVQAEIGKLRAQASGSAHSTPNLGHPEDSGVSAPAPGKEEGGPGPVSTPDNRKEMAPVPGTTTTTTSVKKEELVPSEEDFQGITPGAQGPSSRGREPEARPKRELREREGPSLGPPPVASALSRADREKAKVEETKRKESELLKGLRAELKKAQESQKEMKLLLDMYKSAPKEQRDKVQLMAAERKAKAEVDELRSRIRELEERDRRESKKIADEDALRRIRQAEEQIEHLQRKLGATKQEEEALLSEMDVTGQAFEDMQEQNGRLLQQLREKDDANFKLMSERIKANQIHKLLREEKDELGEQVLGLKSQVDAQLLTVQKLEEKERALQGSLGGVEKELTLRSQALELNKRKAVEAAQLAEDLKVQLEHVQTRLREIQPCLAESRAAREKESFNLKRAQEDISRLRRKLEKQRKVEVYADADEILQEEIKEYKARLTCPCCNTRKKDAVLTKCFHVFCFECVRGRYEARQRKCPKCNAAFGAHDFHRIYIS
UniProt Q9H4P4: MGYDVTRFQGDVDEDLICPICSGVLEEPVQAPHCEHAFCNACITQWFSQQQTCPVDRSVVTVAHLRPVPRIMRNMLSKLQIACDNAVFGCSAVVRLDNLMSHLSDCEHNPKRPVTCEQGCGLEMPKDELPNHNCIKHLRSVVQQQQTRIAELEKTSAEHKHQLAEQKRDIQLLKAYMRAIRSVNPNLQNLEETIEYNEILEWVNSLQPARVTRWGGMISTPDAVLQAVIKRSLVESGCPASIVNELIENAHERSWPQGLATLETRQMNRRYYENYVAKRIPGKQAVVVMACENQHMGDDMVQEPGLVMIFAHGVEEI
UniProt P78346: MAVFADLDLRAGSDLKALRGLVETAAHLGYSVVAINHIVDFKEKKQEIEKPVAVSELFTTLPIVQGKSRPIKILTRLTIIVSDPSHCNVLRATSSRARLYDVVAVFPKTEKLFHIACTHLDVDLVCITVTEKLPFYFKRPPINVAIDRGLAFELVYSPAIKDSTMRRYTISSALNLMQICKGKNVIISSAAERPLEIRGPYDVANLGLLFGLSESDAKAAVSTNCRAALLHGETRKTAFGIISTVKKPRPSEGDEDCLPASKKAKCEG
UniProt O60942: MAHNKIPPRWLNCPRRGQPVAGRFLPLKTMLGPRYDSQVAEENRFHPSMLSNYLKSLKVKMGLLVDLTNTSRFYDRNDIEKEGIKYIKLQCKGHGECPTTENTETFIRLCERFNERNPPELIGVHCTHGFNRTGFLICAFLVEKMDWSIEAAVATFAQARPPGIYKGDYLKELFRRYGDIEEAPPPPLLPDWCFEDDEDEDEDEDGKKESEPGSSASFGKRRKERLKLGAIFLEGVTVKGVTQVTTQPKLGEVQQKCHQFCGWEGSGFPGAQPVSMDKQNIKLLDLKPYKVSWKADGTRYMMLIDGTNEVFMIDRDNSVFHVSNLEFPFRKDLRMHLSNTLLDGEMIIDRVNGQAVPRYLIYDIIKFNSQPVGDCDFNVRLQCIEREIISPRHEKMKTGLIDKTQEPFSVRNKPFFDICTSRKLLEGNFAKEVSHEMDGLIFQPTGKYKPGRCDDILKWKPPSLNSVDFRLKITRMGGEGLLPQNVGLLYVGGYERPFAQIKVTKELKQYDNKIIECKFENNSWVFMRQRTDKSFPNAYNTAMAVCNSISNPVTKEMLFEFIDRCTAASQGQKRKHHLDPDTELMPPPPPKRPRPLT
UniProt Q9H4A4: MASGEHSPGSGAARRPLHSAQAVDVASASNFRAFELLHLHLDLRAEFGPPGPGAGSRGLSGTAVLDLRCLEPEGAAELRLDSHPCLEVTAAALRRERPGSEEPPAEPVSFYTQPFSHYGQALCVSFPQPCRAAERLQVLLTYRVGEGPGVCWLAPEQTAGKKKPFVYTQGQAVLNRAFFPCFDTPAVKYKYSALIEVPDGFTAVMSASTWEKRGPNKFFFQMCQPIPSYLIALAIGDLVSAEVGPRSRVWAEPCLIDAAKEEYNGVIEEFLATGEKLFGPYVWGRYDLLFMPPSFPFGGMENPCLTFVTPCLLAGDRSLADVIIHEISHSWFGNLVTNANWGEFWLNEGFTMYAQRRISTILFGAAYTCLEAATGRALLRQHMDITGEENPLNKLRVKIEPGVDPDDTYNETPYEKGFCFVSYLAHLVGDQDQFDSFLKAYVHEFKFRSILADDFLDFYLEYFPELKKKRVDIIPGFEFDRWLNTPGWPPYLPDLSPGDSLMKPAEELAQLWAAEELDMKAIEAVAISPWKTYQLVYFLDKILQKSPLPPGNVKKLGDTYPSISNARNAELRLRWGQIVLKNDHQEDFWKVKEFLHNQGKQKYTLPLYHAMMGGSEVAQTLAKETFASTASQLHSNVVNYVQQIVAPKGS

Target	probe-labelled cysteine peptide fold change (10 µM)	probe-labelled cysteine peptide fold change (50 µM)
RNF20_Q5VTR2_924_LTCPCCNMR (UniProt Q5VTR2)	-0.0798	0.0702
RPL3_P39023_114_TVFAEHISDECKR (UniProt P39023)	0.0509	-0.257
RNH1_P13489_216_LESCGVTSDNCR (UniProt P13489)	0.11	0.114
RNF31_Q96EP0_901_HQFCSGCYNAFYAK (UniProt Q96EP0)	0.129	0.00208
RPAP3_Q9H6T3_190_KFAVAESDCNLAVALNR (UniProt Q9H6T3)	0.0301	0.0664
RNF138_Q8WVD3_54_ESGAHCPLCR (UniProt Q8WVD3)	0.122	-0.124
RNF40_O75150_69_QACEDELRER (UniProt O75150)	-0.0923	-0.0974
RNF41_Q9H4P4_238_SLVESGCPASIVNELIENAHER (UniProt Q9H4P4)	-0.0718	0.126
RPP30_P78346_87_LTIIVSDPSHCNVLR (UniProt P78346)	-0.0822	-0.0414
RNF213_Q63HN8_78_EEGGPCLFPGSDSWQENPEEPCSK (UniProt Q63HN8)	0.117	-0.154
RPL5_P46777_76_IEGDMIVCAAYAHELPK (UniProt P46777)	0.0392	0.169
RPL7L1_Q6DKI1_207_HFQEISWFLCPFHLSVAR (UniProt Q6DKI1)	0.094	-0.113
RNGTT_O60942_375_FNSQPVGDCDFNVR (UniProt O60942)	-0.163	-0.169
RPL11_P62913_72_IAVHCTVR (UniProt P62913)	0.186	0.163
RNPEP_Q9H4A4_69_CLEPEGAAELR (UniProt Q9H4A4)	0.117	0.197

Some of the entries above, reformatted:
Target,probe-labelled cysteine peptide fold change (10 µM),probe-labelled cysteine peptide fold change (50 µM)
RPP30_P78346_87_LTIIVSDPSHCNVLR (UniProt P78346),-0.0822,-0.0414
RNGTT_O60942_375_FNSQPVGDCDFNVR (UniProt O60942),-0.163,-0.169
